Measurements from patent US20250011405A1.
These are yes or no findings as the source states them, for the method shown. Some binding calls cover weakened binding; strength is not graded here.

The chains behind the UniProt entries cited, without tags or fusion partners. Where a name states a change or a piece, a line headed by the entry shows the natural chain unless it says otherwise.
UniProt P26447: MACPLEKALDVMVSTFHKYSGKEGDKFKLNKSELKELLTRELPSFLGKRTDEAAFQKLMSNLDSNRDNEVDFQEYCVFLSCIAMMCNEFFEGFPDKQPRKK

Target: recombinant human S100A4 protein (human) (UniProt P26447)
Assay: sandwich ELISA: plate coated with 10 µg/ml 5C3 mAb as capture, mouse serum/plasma, detection with rabbit anti-S100A4 polyclonal antibody (DAKO); standard curve with rhS100A4

B1: 5C3 antibody, produced by the hybridoma cell line 5C3-1B8-1F4 with deposit number ECACC 10022401 (antibody, V domains shown)
VH: EAQLQQSGAELVKPGASVKLSCTASGFNIQETYMHWVKQRPEQGLEWIGRIDPANGNTKDDPKFQGKASITVDTSSNTAYLQLSSLTSEDTAVYYCASSYAMDYWGQGTSVTVSS
VL: DVLMTQTPLSLPVSLGDQASISCRSSQSIVHSNGNTYLEWYLQKTGQSPELLIYKVSNRLSGVPDRFSGSGSGTDFTLKISRVEAEDLGVYYCFQGSHVPFTFGSGTKLEIK
binding: binds
